Laboratory results: PubChem BioAssay AID720505 (Drosophila RNAi Screening Center, 2013)
Purpose: 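Fly regulators or components of the CRAC channel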 (primary screen). System: Drosophila S2R+ cells. Reagent: long dsRNA against Drosophila genes. Challenge: thapsigargin (2 µM) in calcium-free buffer to empty internal stores, then 2 mM calcium added back. Detection: 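Stores emptied by 2 µM thapsigargin without calcium, then 2 mM calcium re-added; fluo-4 fluorescence followed by FLIPR in 384-well plates, per-well averaged endpoint, raw; two screen passes, some wells retested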. Scale: calcium signal and retest calcium signal: higher = more calcium entry after store depletion. Active means: 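Knock-downs counted as hits when calcium entry dropped relative to STIM1 positive and Rho1 negative controls present on each plate; roughly 1500 genes called, with reductions of differing size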. Calls: active = called as lowering calcium entry; inactive = not called.
The deposit covers about 20,000 reagents; below is an unselected part of those with a known target gene and a result. In the full data, about 2,100 (10%) got an active call. 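Raw plate signals without normalisation; calls rest on control-based scores that were not deposited; replicate 2 separates called from uncalled poorly.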 Names joined by + are all predicted targets of the reagent. Not stated in the record: the amount of reagent, the time to read-out.

target | DRSC id | calcium signal, replicate 1 | calcium signal, replicate 2 | retest calcium signal, replicate 1 | retest calcium signal, replicate 2 | activity call
CG17666 | DRSC10276 | 76.2 | 87.2 | – | – | inactive
CG17782 | DRSC15267 | 224 | 94.5 | – | – | inactive
CG17782 | DRSC23227 | 108 | 145 | – | – | inactive
CG42814 | DRSC15940 | 155 | 167 | – | – | inactive
CG15533 | DRSC15069 | 147 | 135 | – | – | inactive
wuc | DRSC06152 | 108 | 181 | – | – | inactive
Ube4A | DRSC02004 | 119 | 248 | – | – | inactive
Hipk | DRSC08507 | 63.7 | 91.2 | – | – | active
Hipk | DRSC23155 | 108 | 152 | – | – | inactive
ClC-a | DRSC14947 | 141 | 129 | – | – | inactive
ClC-a | DRSC14948 | 139 | 122 | – | – | inactive
ClC-a | DRSC16142 | 111 | 121 | – | – | inactive
rad50 | DRSC04523 | 140 | 81.8 | – | – | inactive
Ace | DRSC12959 | – | – | – | – | inactive
Ace | DRSC14100 | 91.7 | 164 | – | – | inactive
bab1 | DRSC08379 | 76.4 | 89.8 | 133 | 109 | inactive
bab1 | DRSC08709 | 64 | 62.7 | – | – | active
bab1 | DRSC21882 | 82.6 | 226 | – | – | inactive
Cox11 | DRSC22692 | 94.3 | 147 | – | – | inactive
Gr68a | DRSC10803 | 52.1 | 83.2 | – | – | inactive
CG31523 | DRSC12009 | – | – | – | – | inactive
CG31523 | DRSC12337 | 69.3 | 49.7 | 55 | 59.1 | active
wupA | DRSC20385 | 89 | 141 | 8039 | 147 | inactive
wupA | DRSC22547 | 91.6 | 135 | – | – | inactive
CG31300 | DRSC14657 | 265 | 140 | – | – | inactive
CG43277 | DRSC05800 | 80.7 | 92.1 | – | – | inactive
l(3)neo43 | DRSC14988 | 68.1 | 134 | – | – | inactive
CG3225 | DRSC00578 | 70.6 | 145 | – | – | inactive
tweek | DRSC02433 | 131 | 167 | – | – | inactive
tweek | DRSC02434 | 120 | 107 | – | – | inactive
tweek | DRSC02785 | 105 | 135 | – | – | inactive
tweek | DRSC23133 | 114 | 165 | – | – | inactive
Pura | DRSC10862 | 98.2 | 78.1 | – | – | inactive
Pura | DRSC10864 | 82.5 | 81.2 | – | – | inactive
Pura | DRSC10865 | 98.7 | 82.1 | – | – | inactive
Pura | DRSC10866 | 98.2 | 86 | – | – | inactive
Rnb | DRSC16325 | 146 | 191 | – | – | inactive
Nup160 + RfC38 | DRSC01997 | 71.5 | 92.2 | – | – | inactive
wa-cup | DRSC12511 | 122 | 101 | – | – | inactive
CG7366 | DRSC10825 | 101 | 168 | – | – | inactive
IFT52 | DRSC03271 | 102 | 120 | – | – | inactive
wal | DRSC07717 | 193 | 120 | – | – | inactive
ND-51 | DRSC03145 | 95.6 | 216 | – | – | inactive
cos | DRSC07598 | 67.4 | 221 | – | – | active
CG31446 | DRSC13111 | – | – | – | – | active
Gad1 | DRSC08661 | 69.1 | 87.3 | – | – | active
CG33998 | DRSC05747 | 114 | 101 | – | – | inactive
Pcif1 | DRSC11655 | 126 | 120 | – | – | inactive
Grip91 | DRSC20249 | 151 | 127 | – | – | inactive
rl | DRSC07833 | 62.5 | 158 | – | – | inactive
rl | DRSC20742 | 204 | 87.9 | – | – | inactive
rl | DRSC21814 | 129 | 80.8 | – | – | inactive
CG3713 | DRSC18648 | 81.8 | 193 | – | – | inactive
GstD5 | DRSC16686 | 121 | 126 | – | – | inactive
mthl2 | DRSC10287 | 98.5 | 90.2 | – | – | inactive
sowi | DRSC12558 | 116 | 195 | – | – | inactive

An excerpt from the list above:
target | DRSC id | calcium signal, replicate 1 | calcium signal, replicate 2 | retest calcium signal, replicate 1 | retest calcium signal, replicate 2 | activity call
CG17782 | DRSC23227 | 108 | 145 | – | – | inactive
CG42814 | DRSC15940 | 155 | 167 | – | – | inactive
CG15533 | DRSC15069 | 147 | 135 | – | – | inactive
wuc | DRSC06152 | 108 | 181 | – | – | inactive
